US20070031410A1
These are yes or no findings as the source states them, for the method shown. Some binding calls cover weakened binding; strength is not graded here. Where a sequence is shown, tags or fusion partners need not be part of it.

Sequences of proteins named here, by UniProt entry; tags and fusion partners are left off. Residues count along the entry.
UniProt Q9ULZ3: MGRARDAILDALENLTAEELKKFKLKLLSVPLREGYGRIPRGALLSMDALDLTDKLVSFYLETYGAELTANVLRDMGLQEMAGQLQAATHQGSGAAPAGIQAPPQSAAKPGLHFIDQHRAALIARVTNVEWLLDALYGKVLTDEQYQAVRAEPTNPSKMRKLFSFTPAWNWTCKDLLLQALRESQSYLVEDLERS
UniProt Q96P20, residues 1-93: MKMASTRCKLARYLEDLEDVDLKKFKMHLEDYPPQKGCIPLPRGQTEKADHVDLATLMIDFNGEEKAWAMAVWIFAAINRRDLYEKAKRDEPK

Experiments:
[1] = target: Myc-ASC (Apoptosis speck protein containing a CARD, Myc-tagged) (UniProt Q9ULZ3); assay: Speck formation on coexpression, immunofluorescence
[2] = target: Myc-ASC (Apoptosis speck protein containing a CARD, Myc-tagged) (UniProt Q9ULZ3); assay: Immunofluorescence co-localization, HeLa cells transfected with GFP-POP2 and Myc-ASC
[3] = target: CIAS1-PYD (pyrin only CIAS1 construct) (UniProt Q96P20); assay: Inferred from reduced speck formation in HeLa cells co-expressing CIAS1-PYD, GFP-POP2 and Myc-ASC
[4] = target: Myc-ASC (Apoptosis speck protein containing a CARD, Myc-tagged) (UniProt Q9ULZ3); assay: Immunofluorescence co-localization in perinuclear specks, HeLa cells co-transfected with GFP-POP2 and Myc-ASC

Measured: binding

B1: GFP-POP2 (pyrin-only protein 2 fused to GFP) (protein, not shown: large carriers)
chain: MASSAELDFNLQALLEQLSQDELSKFKSLIRTISLGKELQTVPQTEVDKANGKQLVEIFTSHSCSYWAGMAAIQVFEKMNQTHLSGRADEHCVMPPP
binds: all assays above
